According to the supplement of paper PMC10849652:
The other results are listed elsewhere or left out.

The chains behind the UniProt entries cited, without tags or fusion partners. Where a name states a change or a piece, a line headed by the entry shows the natural chain unless it says otherwise.
UniProt P27694, whole entry, looked up: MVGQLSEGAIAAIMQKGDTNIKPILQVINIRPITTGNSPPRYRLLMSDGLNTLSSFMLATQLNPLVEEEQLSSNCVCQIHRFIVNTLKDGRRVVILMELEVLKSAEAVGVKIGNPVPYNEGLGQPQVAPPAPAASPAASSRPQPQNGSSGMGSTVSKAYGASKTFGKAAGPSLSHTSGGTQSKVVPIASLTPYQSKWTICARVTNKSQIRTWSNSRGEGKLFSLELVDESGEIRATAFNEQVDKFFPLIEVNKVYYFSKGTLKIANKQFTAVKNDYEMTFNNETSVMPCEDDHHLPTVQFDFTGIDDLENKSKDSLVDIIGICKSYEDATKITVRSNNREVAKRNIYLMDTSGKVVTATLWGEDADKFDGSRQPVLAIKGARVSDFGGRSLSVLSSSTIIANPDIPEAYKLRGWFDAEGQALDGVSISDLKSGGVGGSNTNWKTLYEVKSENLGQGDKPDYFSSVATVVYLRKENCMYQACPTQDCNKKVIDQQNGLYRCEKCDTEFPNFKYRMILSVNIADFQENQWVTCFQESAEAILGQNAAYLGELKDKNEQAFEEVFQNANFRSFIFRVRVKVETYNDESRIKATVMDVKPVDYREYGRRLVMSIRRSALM
UniProt Q15418, whole entry, looked up: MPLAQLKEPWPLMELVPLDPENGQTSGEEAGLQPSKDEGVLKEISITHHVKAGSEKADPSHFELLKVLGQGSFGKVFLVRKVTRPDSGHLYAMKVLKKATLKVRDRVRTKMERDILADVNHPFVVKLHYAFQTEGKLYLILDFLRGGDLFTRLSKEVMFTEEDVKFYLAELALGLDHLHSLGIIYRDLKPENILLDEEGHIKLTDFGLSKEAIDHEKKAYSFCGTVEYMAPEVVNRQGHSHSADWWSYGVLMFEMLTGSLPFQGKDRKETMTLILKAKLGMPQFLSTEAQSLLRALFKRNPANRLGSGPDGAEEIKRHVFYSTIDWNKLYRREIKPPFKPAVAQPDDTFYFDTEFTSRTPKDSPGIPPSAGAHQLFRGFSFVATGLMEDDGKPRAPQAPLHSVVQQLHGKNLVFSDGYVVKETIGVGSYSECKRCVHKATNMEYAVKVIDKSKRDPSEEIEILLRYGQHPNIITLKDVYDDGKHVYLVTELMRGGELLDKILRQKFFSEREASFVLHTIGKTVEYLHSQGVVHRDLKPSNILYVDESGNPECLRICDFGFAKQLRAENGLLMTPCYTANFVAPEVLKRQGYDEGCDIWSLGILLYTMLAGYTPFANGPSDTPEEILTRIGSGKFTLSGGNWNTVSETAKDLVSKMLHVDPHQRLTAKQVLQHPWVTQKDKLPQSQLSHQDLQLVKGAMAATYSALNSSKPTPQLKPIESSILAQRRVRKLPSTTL
UniProt P15927: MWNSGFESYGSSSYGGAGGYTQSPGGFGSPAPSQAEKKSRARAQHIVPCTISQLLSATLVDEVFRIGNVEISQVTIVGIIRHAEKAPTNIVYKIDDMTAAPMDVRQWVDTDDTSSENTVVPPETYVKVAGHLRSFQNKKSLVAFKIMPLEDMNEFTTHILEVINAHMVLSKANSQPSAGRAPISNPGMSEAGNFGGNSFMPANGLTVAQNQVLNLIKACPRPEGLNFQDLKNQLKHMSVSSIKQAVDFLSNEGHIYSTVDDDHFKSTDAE

Key:
Assay in all cases: log2 fold change, soluble protein after heating vs DMSO (PISA); higher = thermal stabilisation; K562 cells, 10 uM, 30 min; active = over 0.2 and 3.5 SD of the protein, either way, in both replicates (recomputed)
bafetinib = compound: Cc1ccc(NC(=O)c2ccc(CN3CC[C@H](N(C)C)C3)c(C(F)(F)F)c2)cc1Nc1nccc(-c2cncnc2)n1 [bafetinib]
Outline: (§1)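 K562 cells at 2×10^6 cells/mL were treated for 30 min with 10 μM compound, and aliquots were heated for 3 min over 48°C-58°C before pooling. Extraction used PBS with 0.5% NP-40 at 4°C, and soluble protein was the supernatant after 21,000xg for 90 min, measured by TMTpro 16plex LC-MS/MS with channel sums equalised. Thermal stability values, relative to control samples and from duplicates, are log2 fold changes.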

[1] = compound: Cc1cccc(CC(=O)N2CCc3c2ccc(-c2cn(C)c4ncnc(N)c24)c3F)n1
Outline: as §1

nilotinib = compound: Cc1cn(-c2cc(NC(=O)c3ccc(C)c(Nc4nccc(-c5cccnc5)n4)c3)cc(C(F)(F)F)c2)cn1 [nilotinib]
Outline: as §1

[2] = compound: Cc1nc(Nc2n[nH]c3c2CN(C(=O)N[C@H](CN(C)C)c2ccccc2)C3(C)C)c2sccc2n1
Outline: as §1

dasatinib = compound: Cc1nc(Nc2ncc(C(=O)Nc3c(C)cccc3Cl)s2)cc(N2CCN(CCO)CC2)n1 [dasatinib]
Outline: as §1

[3] = compound: Cc1ncc(-c2ccnc(Nc3ccc(S(C)(=O)=O)cc3)n2)n1C(C)C
Outline: as §1

[4] = compound: Cn1cc(-c2ccc3c(c2)CCN3C(=O)Cc2cccc(C(F)(F)F)c2)c2c(N)ncnc21
Outline: as §1

[5] = compound: Cn1cc(-c2ccc3nnc(C(F)(F)c4ccc5ncccc5c4)n3n2)cn1
Outline: as §1

tipifarnib = compound: Cn1cncc1[C@@](N)(c1ccc(Cl)cc1)c1ccc2c(c1)c(-c1cccc(Cl)c1)cc(=O)n2C [tipifarnib]
Outline: as §1

mubritinib = compound: FC(F)(F)c1ccc(/C=C/c2nc(COc3ccc(CCCCn4ccnn4)cc3)co2)cc1 [mubritinib]
Outline: as §1

[6] = compound: NC(=O)Nc1cc(-c2cccc(F)c2)sc1C(=O)N[C@H]1CCCNC1
Outline: as §1

[7] = compound: NC(=O)c1cnc(N[C@@H]2CCCC[C@@H]2N)nc1Nc1cccc(-n2nccn2)c1
Outline: as §1

[8] = compound: NC1(c2ccc(-c3nc4ccn5c(=O)[nH]nc5c4cc3-c3ccccc3)cc2)CCC1
Outline: as §1

[9] = compound: NCC(=O)Nc1ccc(-n2nc(C(F)(F)F)cc2-c2ccc3c(ccc4ccccc43)c2)cc1
Outline: as §1

entinostat = compound: Nc1ccccc1NC(=O)c1ccc(CNC(=O)OCc2cccnc2)cc1 [entinostat]
Outline: as §1

vorinostat = compound: O=C(CCCCCCC(=O)Nc1ccccc1)NO [vorinostat]
Outline: as §1

citarinostat = compound: O=C(CCCCCCNC(=O)c1cnc(N(c2ccccc2)c2ccccc2Cl)nc1)NO [citarinostat]
Outline: as §1

silmitasertib = compound: O=C(O)c1ccc2c(c1)nc(Nc1cccc(Cl)c1)c1ccncc12 [silmitasertib]
Outline: as §1

[10] = compound: O=C1NC(=O)C(c2cnc3ccccn23)=C1c1cn2c3c(cc(F)cc13)CN(C(=O)N1CCCCC1)CC2
Outline: as §1

[11] = compound: c1cc(OCCN2CCCCC2)cc(-c2n[nH]c3ccc(-c4nnc[nH]4)cc23)c1
Outline: as §1

Measured: log2 fold change

RPL12 (UniProt P30050)
inactive: bafetinib 0.457 | [1] 0.007 | nilotinib -0.013 | [2] 0.223 | dasatinib 0.335 | [3] -0.047 | [4] -0.549 | [5] -0.332 | tipifarnib 0.378 | mubritinib -0.344 | [6] 0.05 | [7] 0.128 | [8] 0.466 | [9] 0.22 | entinostat -0.169 | vorinostat -0.024 | citarinostat -0.196 | silmitasertib 0.193 | [10] 0.216 | [11] -0.286

RPS8 (UniProt P62241)
inactive: bafetinib 0.344 | [1] 0.007 | nilotinib 0.046 | [2] 0.202 | dasatinib 0.161 | [3] -0.037 | [4] -0.226 | [5] -0.146 | tipifarnib 0.089 | mubritinib -0.151 | [6] 0.099 | [7] 0.117 | [8] 0.33 | [9] 0.156 | entinostat -0.052 | vorinostat 0.005 | citarinostat -0.133 | silmitasertib 0.074 | [10] 0.115 | [11] -0.227

RPL8 (UniProt P62917)
inactive: bafetinib 0.54 | [1] -0.001 | nilotinib -0.028 | [2] 0.242 | dasatinib 0.334 | [3] -0.046 | [4] -0.532 | [5] -0.232 | tipifarnib 0.382 | mubritinib -0.372 | [6] 0.16 | [7] 0.209 | [8] 0.48 | [9] 0.382 | entinostat -0.178 | vorinostat -0.033 | citarinostat -0.213 | silmitasertib 0.16 | [10] 0.312 | [11] -0.311

RPL34 (UniProt P49207)
inactive: bafetinib 0.569 | [1] 0.001 | nilotinib 0.046 | [2] 0.284 | dasatinib 0.336 | [3] -0.038 | [4] -0.586 | [5] -0.298 | tipifarnib 0.394 | mubritinib -0.389 | [6] 0.127 | [7] 0.18 | [8] 0.476 | [9] 0.299 | entinostat -0.152 | vorinostat -0.047 | citarinostat -0.223 | silmitasertib 0.144 | [10] 0.264 | [11] -0.384

RPS3A (UniProt P61247)
inactive: bafetinib 0.243 | [1] -0.031 | nilotinib 0 | [2] 0.201 | dasatinib 0.099 | [3] -0.033 | [4] -0.127 | [5] -0.045 | tipifarnib 0.096 | mubritinib -0.058 | [6] 0.01 | [7] 0.084 | [8] 0.164 | [9] 0.035 | entinostat -0.04 | vorinostat 0.041 | citarinostat -0.071 | silmitasertib 0.017 | [10] 0.088 | [11] -0.131

RPA1 (UniProt P27694)
inactive: bafetinib 0.029 | [1] 0.019 | nilotinib -0.051 | [2] -0.1 | dasatinib 0.077 | [3] 0.016 | [4] -0.004 | [5] 0.015 | tipifarnib -0.074 | mubritinib 0.026 | [6] -0.189 | [7] 0.007 | [8] -0.049 | [9] -0.052 | entinostat 0.06 | vorinostat 0.106 | citarinostat 0.079 | silmitasertib -0.02 | [10] -0.046 | [11] 0.006

RPL35 (UniProt P42766)
inactive: bafetinib 0.393 | [1] -0.018 | nilotinib 0.011 | [2] 0.261 | dasatinib 0.226 | [3] -0.042 | [4] -0.455 | [5] -0.168 | tipifarnib 0.258 | mubritinib -0.214 | [6] 0.167 | [7] 0.039 | [8] 0.338 | [9] 0.127 | entinostat -0.103 | vorinostat 0.043 | citarinostat -0.152 | silmitasertib 0.09 | [10] 0.169 | [11] -0.236

RPS20 isoform 2 (UniProt P60866)
inactive: bafetinib 0.178 | [1] -0.005 | nilotinib -0.006 | [2] 0.223 | dasatinib 0.05 | [3] -0.071 | [4] -0.078 | [5] -0.008 | tipifarnib 0.094 | mubritinib -0.059 | [6] -0.012 | [7] 0.056 | [8] 0.151 | [9] 0.037 | entinostat -0.029 | vorinostat 0.012 | citarinostat -0.091 | silmitasertib -0.006 | [10] 0.072 | [11] -0.1

Two successive entries from above, quoted:
RPL35 (UniProt P42766)
inactive: bafetinib 0.393 | [1] -0.018 | nilotinib 0.011 | [2] 0.261 | dasatinib 0.226 | [3] -0.042 | [4] -0.455 | [5] -0.168 | tipifarnib 0.258 | mubritinib -0.214 | [6] 0.167 | [7] 0.039 | [8] 0.338 | [9] 0.127 | entinostat -0.103 | vorinostat 0.043 | citarinostat -0.152 | silmitasertib 0.09 | [10] 0.169 | [11] -0.236

RPS20 isoform 2 (UniProt P60866)
inactive: bafetinib 0.178 | [1] -0.005 | nilotinib -0.006 | [2] 0.223 | dasatinib 0.05 | [3] -0.071 | [4] -0.078 | [5] -0.008 | tipifarnib 0.094 | mubritinib -0.059 | [6] -0.012 | [7] 0.056 | [8] 0.151 | [9] 0.037 | entinostat -0.029 | vorinostat 0.012 | citarinostat -0.091 | silmitasertib -0.006 | [10] 0.072 | [11] -0.1

Next records follow:

RPL29 (UniProt P47914)
inactive: bafetinib 0.535 | [1] -0.005 | nilotinib 0.025 | [2] 0.082 | dasatinib 0.219 | [3] -0.014 | [4] -0.427 | [5] -0.273 | tipifarnib 0.167 | mubritinib -0.374 | [6] 0.239 | [7] 0.205 | [8] 0.508 | [9] 0.43 | entinostat -0.141 | vorinostat -0.026 | citarinostat -0.176 | silmitasertib 0.162 | [10] 0.487 | [11] -0.33

RPL22 (UniProt P35268)
inactive: bafetinib 0.232 | [1] -0.002 | nilotinib -0.009 | [2] 0.182 | dasatinib 0.115 | [3] -0.017 | [4] -0.111 | [5] -0.078 | tipifarnib 0.018 | mubritinib -0.101 | [6] 0.004 | [7] 0.036 | [8] 0.305 | [9] 0.074 | entinostat -0.078 | vorinostat 0.024 | citarinostat -0.089 | silmitasertib 0.067 | [10] 0.131 | [11] -0.19

RPL7A (UniProt P62424)
inactive: bafetinib 0.586 | [1] 0.008 | nilotinib 0.035 | [2] 0.213 | dasatinib 0.296 | [3] -0.026 | [4] -0.498 | [5] -0.235 | tipifarnib 0.413 | mubritinib -0.385 | [6] 0.222 | [7] 0.183 | [8] 0.495 | [9] 0.341 | entinostat -0.142 | vorinostat -0.039 | citarinostat -0.198 | silmitasertib 0.2 | [10] 0.228 | [11] -0.281

RPS26 (UniProt P62854)
inactive: bafetinib 0.424 | [1] 0.01 | nilotinib -0.003 | [2] 0.285 | dasatinib 0.179 | [3] -0.064 | [4] -0.411 | [5] -0.219 | tipifarnib 0.211 | mubritinib -0.178 | [6] 0.182 | [7] 0.004 | [8] 0.311 | [9] 0.121 | entinostat -0.053 | vorinostat 0 | citarinostat -0.084 | silmitasertib 0.151 | [10] 0.247 | [11] -0.312

RPS29 (UniProt P62273)
inactive: bafetinib 0.257 | [1] -0.047 | nilotinib 0.076 | [2] 0.163 | dasatinib 0.129 | [3] -0.107 | [4] -0.164 | [5] 0.083 | tipifarnib 0.04 | mubritinib -0.202 | [6] -0.026 | [7] 0.223 | [8] 0.276 | [9] 0.256 | entinostat -0.019 | vorinostat -0.068 | citarinostat -0.213 | silmitasertib -0.079 | [10] 0.118 | [11] 0.093

RPS7 (UniProt P62081)
inactive: bafetinib 0.27 | [1] 0 | nilotinib 0.073 | [2] 0.171 | dasatinib 0.093 | [3] -0.029 | [4] -0.182 | [5] -0.057 | tipifarnib 0.131 | mubritinib -0.158 | [6] 0.089 | [7] 0.092 | [8] 0.328 | [9] 0.125 | entinostat -0.029 | vorinostat -0.011 | citarinostat -0.11 | silmitasertib -0.058 | [10] 0.096 | [11] -0.218

RPS6KA1 isoform 2 (UniProt Q15418)
active: [2] -0.569
inactive: bafetinib -0.051 | [1] 0.081 | nilotinib -0.002 | dasatinib -0.281 | [3] -0.044 | [4] -0.019 | [5] 0 | tipifarnib -0.056 | mubritinib 0.041 | [6] -0.131 | [7] -0.242 | [8] -0.205 | [9] -0.096 | entinostat 0.06 | vorinostat 0.109 | citarinostat 0.058 | silmitasertib -0.08 | [10] -0.099 | [11] -0.32

RPA2 isoform 3 (UniProt P15927)
inactive: bafetinib -0.038 | [1] -0.02 | nilotinib -0.032 | [2] -0.013 | dasatinib 0.015 | [3] 0.019 | [4] 0.034 | [5] 0.064 | tipifarnib -0.011 | mubritinib 0.028 | [6] -0.139 | [7] -0.08 | [8] -0.027 | [9] -0.084 | entinostat 0.003 | vorinostat 0.06 | citarinostat 0.053 | silmitasertib -0.014 | [10] -0.121 | [11] -0.055
